Results are given in words; binding and its absence hold for the method and conditions named. Some entries that bind do so weakly or less than the wild type.
Target: ErbB3 (UniProt P21860)
Test: MRD screen, Example 48

Amino acid sequences for entries named in this document (tags omitted). Residues count along the entry.
UniProt P21860, residues 20-643: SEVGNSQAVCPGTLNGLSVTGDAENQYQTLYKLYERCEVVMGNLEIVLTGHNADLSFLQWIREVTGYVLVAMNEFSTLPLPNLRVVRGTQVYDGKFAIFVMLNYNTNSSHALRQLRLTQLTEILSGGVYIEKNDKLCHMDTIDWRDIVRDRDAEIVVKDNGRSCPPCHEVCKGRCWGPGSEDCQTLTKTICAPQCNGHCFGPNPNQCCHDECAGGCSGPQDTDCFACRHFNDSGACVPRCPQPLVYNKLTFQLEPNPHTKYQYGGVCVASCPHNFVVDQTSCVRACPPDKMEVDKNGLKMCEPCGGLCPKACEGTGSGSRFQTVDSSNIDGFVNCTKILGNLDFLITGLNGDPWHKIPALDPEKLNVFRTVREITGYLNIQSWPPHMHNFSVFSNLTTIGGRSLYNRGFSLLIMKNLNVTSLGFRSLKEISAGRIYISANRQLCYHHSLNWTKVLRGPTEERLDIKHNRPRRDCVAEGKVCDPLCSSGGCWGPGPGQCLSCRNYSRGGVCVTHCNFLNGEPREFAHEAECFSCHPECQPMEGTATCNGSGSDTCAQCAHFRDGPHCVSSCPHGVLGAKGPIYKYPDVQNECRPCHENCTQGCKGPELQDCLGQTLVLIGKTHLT

| binding | Binder |
| --- | --- |
| binds | VYCFLNFKTMNYAGEFWCRH [EGC796] |
| binds | VYQYHCDWYTCLFRHT [EGC804] |
| binds | QPRECNYVPAWYCHYYS [EGC803] |
| binds | WQHVCWQDWYSWVCTSGY [EGC800] |
| binds | QMCHMEWHNHVYWQVCHW [EGC807] |
| binds | SQCHWWHEPYGMFQTEICLW [EGC798] |
| binds | QERLCRQIWQHYCVRYM [EGC802] |
| binds | QACNFTSLGWYQEFYCLR [EGC793] |
| binds | LRRRCHSRFMQCSNPG [EGC810] |
| binds | AYCYRSIISRNSTCSAL [EGC795] |
| binds | WMRQCHLETECQRAS [EGC808] |
| binds | WFYQCWQSPWHTECSWVN [EGC823] |
| binds | WEYQCEWGYSYKPQCWLSA [EGC818] |
| binds | GLHGCQYVQMFFHFCAPKT [EGC799] |
| binds | WACRWEWHAAWQKWDEFCVE [EGC794] |
| binds | LPLTCWVLEWHEWLACVSYD [EGC820] |
| binds | YQVFCEWSYWEYHCISNQ [EGC827] |
| binds | RDQPCWYKIMTGCLCMP [EGC824] |
| binds | ANSWCHTLYWQLHHCEILE [EGC792] |
| binds | SWCMWYYESTYSAPYYYCSV [EGC797] |
| binds | SAVACFHPPYFFICVASG [EGC809] |
| binds | GQTWCHWGMYCISTT [EGC811] |
| binds | DESDCKQLPICHGHCLVPL [EGC826] |
| binds | LPPSWCVRGECSWLLL [EGC825] |
| binds | PWRGCWWDPWQPWDCVPFF [EGC801] |
| binds | FQGHCALFPTDWICTLKS [EGC806] |
| binds | ESCWTWDHWYQYWVPQRCDP [EGC791] |
| binds | WSYSCVFLPWMYHMCYLET [EGC822] |
